For at least one entry, the source does not settle the construct or the ends of the probe. For some assays here: At least one verdict was read from the data and is not stated in words by the source.
What was measured:
[1] = biological target: LexA(M24C) oxidized (UniProt P0A7C2); assay: SPR; details: 150 nM, similar binding to wt, LexA-operator SPR: 20 mM NaH2PO4 pH 7.3, 0.14 M NaCl, 0.005% P20, 25 C, RecA-SKBT25: 20 mM NaH2PO4 pH 7.3, 1 mM ATPgS, 2 mM MgCl2, 0.05 mM Ellman's reagent, on ice, recombinant protein, label: 3' TEG-biotin on S9
[2] = biological target: RecA (UniProt P0A7G6); assay: filament formation (used for cross-linking); details: 1 mM ATPgS, 2 mM MgCl2; recombinant protein; single-stranded DNA

Sequences of proteins named here, by UniProt entry; tags and fusion partners are left off. A change or cut given only in a name is not applied to a line headed by its entry. Residues count along the entry.
UniProt P0A7C2: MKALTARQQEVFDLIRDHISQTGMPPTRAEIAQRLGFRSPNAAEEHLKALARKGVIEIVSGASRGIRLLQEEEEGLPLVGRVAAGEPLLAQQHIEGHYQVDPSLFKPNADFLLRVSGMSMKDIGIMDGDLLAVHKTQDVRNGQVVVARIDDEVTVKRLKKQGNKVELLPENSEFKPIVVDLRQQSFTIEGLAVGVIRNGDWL
UniProt P0A7G6, 2-353: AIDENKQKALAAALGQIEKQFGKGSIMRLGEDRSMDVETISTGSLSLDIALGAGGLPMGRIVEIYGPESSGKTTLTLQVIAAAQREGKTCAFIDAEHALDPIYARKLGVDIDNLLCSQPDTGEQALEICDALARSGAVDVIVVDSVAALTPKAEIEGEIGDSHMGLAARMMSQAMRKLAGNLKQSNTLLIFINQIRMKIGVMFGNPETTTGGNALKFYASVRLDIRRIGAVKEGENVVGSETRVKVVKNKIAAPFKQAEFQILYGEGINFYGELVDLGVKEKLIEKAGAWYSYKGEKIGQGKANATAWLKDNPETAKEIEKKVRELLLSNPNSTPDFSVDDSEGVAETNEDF

Row | Sequence | binding result [1] | binding result [2]
1 | GTTACTACTCGAGCGATTACTGTTTATTTATACAGTAAA / TTTACTGTATAAATAAACAGTAAT / CGCTCGAGTAGTAAC [tisB operator SPR fragment] | binds | 
2 | GCGTGTGTGGTGGTGTGC [SKBT25] |  | binds
